Data published in PubChem BioAssay (Tox21).
Where “and” joins values, the source holds several entries; their conditions need not be identical. Equal entries are not always repeated. This list was built around the results that the source calls inconclusive (neither active nor inactive); the mix of calls is not that of the screen. For part of these data: Potencies beside an inconclusive call are fits to weak or partial responses and may not hold up. More than one record can exist for a structure, and the calls need not agree. Calls of active or inactive are those of the source. Unless noted, calls follow the shape of the full dose curve.

The chains behind the UniProt entries cited, without tags or fusion partners. Where a name states a change or a piece, a line headed by the entry shows the natural chain unless it says otherwise.
UniProt P14416, whole entry, looked up: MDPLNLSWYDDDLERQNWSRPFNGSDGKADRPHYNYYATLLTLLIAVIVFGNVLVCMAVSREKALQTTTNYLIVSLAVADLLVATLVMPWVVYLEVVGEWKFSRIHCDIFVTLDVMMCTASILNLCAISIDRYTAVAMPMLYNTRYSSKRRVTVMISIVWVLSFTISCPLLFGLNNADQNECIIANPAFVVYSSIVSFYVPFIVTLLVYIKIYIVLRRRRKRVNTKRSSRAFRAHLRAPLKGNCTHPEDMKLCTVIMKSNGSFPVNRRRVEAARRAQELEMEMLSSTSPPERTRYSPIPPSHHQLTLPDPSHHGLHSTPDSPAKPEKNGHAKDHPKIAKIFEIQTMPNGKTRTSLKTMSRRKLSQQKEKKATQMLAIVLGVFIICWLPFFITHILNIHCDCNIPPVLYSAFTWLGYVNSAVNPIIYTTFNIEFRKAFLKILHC
UniProt P11229: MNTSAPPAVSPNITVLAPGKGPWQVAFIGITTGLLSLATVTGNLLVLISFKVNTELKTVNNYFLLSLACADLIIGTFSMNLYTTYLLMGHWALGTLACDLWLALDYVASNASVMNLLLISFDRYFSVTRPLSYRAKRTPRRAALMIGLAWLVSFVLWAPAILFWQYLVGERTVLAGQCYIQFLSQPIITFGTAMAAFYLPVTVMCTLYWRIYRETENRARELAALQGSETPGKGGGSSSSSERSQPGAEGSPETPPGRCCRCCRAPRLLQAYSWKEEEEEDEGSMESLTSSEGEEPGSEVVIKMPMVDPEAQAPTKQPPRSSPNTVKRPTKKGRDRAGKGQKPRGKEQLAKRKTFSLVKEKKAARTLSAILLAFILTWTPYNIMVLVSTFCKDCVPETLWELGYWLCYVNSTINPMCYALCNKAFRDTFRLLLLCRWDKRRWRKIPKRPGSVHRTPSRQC
UniProt P28223, whole entry, looked up: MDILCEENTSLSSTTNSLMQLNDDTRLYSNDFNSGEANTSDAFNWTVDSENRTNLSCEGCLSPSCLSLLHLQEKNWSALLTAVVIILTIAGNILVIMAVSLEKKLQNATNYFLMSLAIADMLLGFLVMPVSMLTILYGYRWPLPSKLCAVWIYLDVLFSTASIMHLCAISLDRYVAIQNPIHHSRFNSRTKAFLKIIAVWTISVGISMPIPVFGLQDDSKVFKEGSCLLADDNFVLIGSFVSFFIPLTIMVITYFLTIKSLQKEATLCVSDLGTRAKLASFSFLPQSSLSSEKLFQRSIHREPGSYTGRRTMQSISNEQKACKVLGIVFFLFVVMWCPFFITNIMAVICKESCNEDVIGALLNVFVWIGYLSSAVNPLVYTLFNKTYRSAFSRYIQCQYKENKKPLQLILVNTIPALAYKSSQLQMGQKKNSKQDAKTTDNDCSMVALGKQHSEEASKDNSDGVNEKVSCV

Assays:
[1] = p53 small molecule agonists, cell-based qHTS assay with rat liver microsomes: qHTS cell viability counter screen (AID 1963580); conditions: p53RE-bla HCT-116 + rat microsomes, ATP viability, 16 h; series mostly up to 66 µM; also: potency is read from the fitted curve at half-maximal effect; nearly all actives have a fitted effect of over 45% in size
In short: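 p53RE-bla HCT-116 cells were exposed 16 h at 37 C to compounds with rat liver microsomes (0.5 mg/mL) and NADPH (0.5 mg/mL). Viability was measured in the same wells as ATP content by CellTiter-Glo luminescence.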

[2] = p53 small molecule agonists, cell-based qHTS assay: qHTS cell viability counter screen (AID 1963581); conditions: p53RE-bla HCT-116 viability, ATP luminescence, 16 h; series mostly up to 66 µM; also: nearly all actives have a fitted effect of over 45% in size; also: potency is read from the fitted curve at half-maximal effect; as to activity change, negative = cytotoxicity: % is scaled to controls: 0 for no effect and ±100 for the full control effect
In short: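 p53RE-bla HCT-116 cells, compounds added 5 h after plating and incubated 16 h at 37 C. Cytotoxicity measured in the same wells as intracellular ATP by CellTiter-Glo luminescence after 30 min at room temperature.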

[3] = p53 small molecule agonists, cell-based qHTS assay (AID 1963582; active = well fitted activation curve with a large enough effect in the signal ratio in the repeat runs, not every such curve was filed as active; inconclusive = weak or mixed curves; the % refers to the signal ratio; also: potency is read from the fitted curve at half-maximal effect; as to activation: % is scaled to controls: 0 for no effect and ±100 for the full control effect); conditions: HCT-116 p53RE-bla reporter, beta-lactamase FRET ratio, 16 h; activation: at 66 µM (top of the series) unless noted
In short: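 p53RE-bla reporter cells, compounds added in DMSO after 5 h plating, incubated 16 h at 37 C. Beta-lactamase read via 2 h room-temperature LiveBLAzer B/G FRET substrate, fluorescence intensity.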

[4] = cAMP Responsive Elements (CRE) small molecule agonists, cell-based qHTS assay (AID 1963590); conditions: CRE-bla HEK293T, beta-lactamase FRET ratio, 3 h; activation: at 92.4 µM (top of the series) unless noted; also: potency is read from the fitted curve at half-maximal effect
In short: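 CRE-bla HEK 293T cells, 2,000/well in DMEM with 10% dialyzed FBS and 25 mM HEPES, pre-incubated 18 h at 37 C, then exposed to compound 3 h at 37 C. Beta-lactamase reporter read with LiveBLAzer B/G FRET substrate after 2 h at room temperature.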

[5] = target: Beta-2 adrenergic receptor (Homo sapiens) (UniProt P07550); assay: Adrenergic beta2 receptor (ADRB2) small molecule antagonists, cell-based qHTS assay (AID 1963592); conditions: CHO-ADRB2 cells, isoproterenol-stimulated cAMP HTRF ratio, 0.5 h; activity change, negative = inhibition: at 92.4 µM (top of the series) unless noted; also: nearly all actives have a fitted effect of over 50% in size; also: potency is read from the fitted curve at half-maximal effect
In short: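 Cells (CHO, stable ADRB2 overexpression) incubated 18-20hr at 37C; compounds added from DMSO; agonist mix (1nM isoproterenol, 100uM IBMX, 25uM Ro-20-1724) added; 0.5hr RT; d2-cAMP and anti-cAMP-cryptate added; 1hr RT; 665/615 nm read.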

[6] = target: Beta-2 adrenergic receptor (Homo sapiens) (UniProt P07550); assay: Adrenergic beta2 receptor (ADRB2) small molecule agonists, cell-based qHTS assay (AID 1963593); conditions: CHO-ADRB2 cells, cAMP HTRF, 30 min; also: potency is read from the fitted curve at half-maximal effect;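 as to activation: CHO cells stably overexpressing human ADRB2; % is scaled to controls: 0 for no effect and ±100 for the full control effect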
In short: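 CHO cells stably over-expressing ADRB2 were plated overnight at 37C, then dosed with compounds plus a stimulation mix containing 100uM IBMX and 25uM Ro-20-1724 for 0.5hr at room temperature. cAMP was measured by HTRF competition, 1hr.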

[7] = target: D(2) dopamine receptor (Homo sapiens) (UniProt P14416); assay: Dopamine D2 receptor (DRD2) small molecule agonists, cell-based qHTS assay (AID 1963594); conditions: HEK293-DRD2 cAMP HTRF, agonist mode, 30 min; activation: at 92.4 µM (top of the series) unless noted; also: potency is read from the fitted curve at half-maximal effect; nearly all actives have a fitted effect of over 35% in size
In short: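 HEK293 cells stably expressing human DRD2, pre-treated with PDE inhibitor Ro20-1724 (0.1 mM final) and compound 10 min at room temperature, then stimulated with NKH477 (200nM […]) for 30 min. cAMP read by HTRF (665/620 nm).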

[8] = p53 small molecule agonists, cell-based qHTS assay with human liver microsomes: qHTS cell viability counter screen (AID 1963579); conditions: p53RE-bla HCT-116 viability, ATP luminescence, 16 h, HLM; series mostly up to 66 µM; also: potency is read from the fitted curve at half-maximal effect; nearly all actives have a fitted effect of over 45% in size
In short: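 Metabolic activation used human liver microsomes and NADPH, both 0.5 mg/mL final, over 16 hours at 37 C on p53RE-bla cells (4,000/well). Cytotoxicity measured by CellTiter-Glo luminescence, 30 min at room temperature.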

[9] = target: D(2) dopamine receptor (Homo sapiens) (UniProt P14416); assay: Dopamine D2 receptor (DRD2) small molecule antagonists, cell-based qHTS assay (AID 1963595; active = well fitted inhibition curve with a large enough effect in the signal ratio in the repeat runs, with a control signal flat; inconclusive = weak or mixed curves, or effect the other way; the % refers to the signal ratio; also: potency is read from the fitted curve at half-maximal effect; as to activity change, negative = inhibition: % is scaled to controls: 0 for no effect and ±100 for the full control effect); conditions: HEK293-DRD2 cAMP HTRF antagonist mode; activity change, negative = inhibition: at 92.4 µM (top of the series) unless noted
In short: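 Cells were plated and grown for 24 h at 37 °C. Ro20-1724 (0.1 mM final) went in first, then compound for 10 min. NKH477 (200 nM) with quinpirole (12 nM) followed for 30 min at RT, then HTRF detection reagents for 1 h.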

[10] = target: Muscarinic acetylcholine receptor M1 (Homo sapiens) (UniProt P11229); assay: Cholinergic receptor muscarinic 1 (CHRM1) small molecule agonists, cell-based qHTS assay (AID 1963589); conditions: CHRM1-CHO cells, agonist mode, calcium flux fluorescence; activation: at 76.8 µM (top of the series); also: potency is read from the fitted curve at half-maximal effect; nearly all actives have a fitted effect of over 35% in size
In short: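 CHO cells stably expressing human CHRM1 were loaded with calcium dye for 1 h at 37 C, then compound was added in agonist mode. Intracellular calcium fluorescence was followed kinetically at 1 s intervals. Fifteen concentrations were tested in three independent runs.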

[11] = target: 5-hydroxytryptamine receptor 2A (Homo sapiens) (UniProt P28223); assay: 5-hydroxytryptamine receptor 2A (HTR2A) small molecule antagonists, cell-based qHTS assay (AID 1963586); conditions: HTR2A-CHO cells, DOI-induced calcium flux, fluorescence; series mostly up to 61.5 µM; also: % is scaled to controls: 0 for no effect and ±100 for the full control effect; nearly all actives have a fitted effect of over 45% in size
In short: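 Antagonist-mode intracellular calcium assay: DOI (4 nM) added after 5 min compound pre-incubation at room temperature to dye-loaded HTR2A-CHO cells. Fluorescence followed for 3 min, sampled every second.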

[12] = target: 5-hydroxytryptamine receptor 2A (Homo sapiens) (UniProt P28223); assay: 5-hydroxytryptamine receptor 2A (HTR2A) small molecule agonists, cell-based qHTS assay (AID 1963587); conditions: HTR2A-CHO cells, calcium flux fluorescence, agonist mode; activation: at 76.8 µM (top of the series); also: potency is read from the fitted curve at half-maximal effect; nearly all actives have a fitted effect of over 30% in size
In short: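 CHO cells stably expressing human HTR2A, plated 18 h, loaded with calcium dye 1 h at 37 C. Agonist mode: compounds added and intracellular calcium fluorescence recorded kinetically for 2 min at 1 sec intervals.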

[13] = cAMP Responsive Elements (CRE) small molecule antagonists, cell-based qHTS assay (AID 1963591; active = well fitted inhibition curve with a large enough effect in the signal ratio in the repeat runs, not every such curve was filed as active; inconclusive = weak or mixed curves, or effect the other way; the % refers to the signal ratio; also: potency is read from the fitted curve at half-maximal effect); conditions: CRE-bla HEK293T, beta-lactamase FRET ratio; activity change, negative = inhibition: at 92.4 µM (top of the series) unless noted
In short: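 CRE-bla HEK293T cells plated 18 h, then given compound plus NKH477 at 0.25 uM final for 3 h at 37C. Beta-lactamase reporter read with LiveBLAzer B/G FRET substrate after 2 h at room temperature.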

[14] = activation: at 92.4 µM (top of the series) unless noted

## C[C@@H]1CC[C@@]2(OC1)O[C@H]1[C@@H](O)[C@H]3[C@@H]4CC[C@H]5C[C@@H](O[C@@H]6O[C@H](CO)[C@H](O[C@@H]7O[C@H](CO)[C@@H](O)[C@H](O[C@@H]8OC[C@@H](O)[C@H](O)[C@H]8O)[C@H]7O[C@@H]7O[C@H](CO)[C@@H](O)[C@H](O[C@@H]8O[C@H](CO)[C@@H](O)[C@H](O)[C@H]8O)[C@H]7O)[C@H](O)[C@H]6O)[C@H](O)C[C@]5(C)[C@H]4CC[C@]3(C)[C@H]1[C@@H]2C
[1]
  Potency: active: 13.7 µM
[2]
  Potency: active: 13.7 µM
[3]
  Potency: inconclusive: 43.3 µM [falling, partial curve]
[4]
  Potency: inconclusive: 29 µM [falling, partial curve]
[5]
  Potency: active: 64.9 µM
[6]; [14]
  Potency: inconclusive: 64.9 µM [inhibitor, partial curve]
[7]
  Potency: active: 51.5 µM

## CN(C)C(=S)[S-].CN(C)C(=S)[S-].[Cu+2]
[1]
  Potency: inconclusive: 3.14 µM [cytotoxic, full curve, poor fit]
[2]
  Potency: inconclusive: 9.92 µM [rising, partial curve]
[4]
  Potency: inconclusive: 14.9 µM [rising, partial curve]
[6]; [14]
  Potency: inconclusive: 5.92 µM [inhibitor, single point]

## OCCN(CCO)CCO
[8]
  Potency: inconclusive: 40.8 µM [rising, single point]
[9]
  Potency: inactive

## CSCCCN=C=S
[1]
  Potency: inconclusive: 51.3 µM [cytotoxic, single point]

## Cc1ccc([N+](=O)[O-])cc1
[10]
  Potency: inconclusive: 21.9 µM [rising, partial curve, poor fit]

## CC(C)(Cl)Cl
[6]; at 92.4 µM (top of the series)
  activation: inactive: -9.22%

## CCc1cnc(C2=NC(C)(C(C)C)C(=O)N2)c(C(=O)O)c1 (stereo unspecified)
[6]; at 92.4 µM (top of the series)
  activation: inactive: -30.7%

## NC(=O)c1ccc(N)nc1
[2]
  Potency: active: 5.76 µM
[3]
  Potency: inconclusive: 3.63 µM [falling, full curve, poor fit]
[6]; [14]
  activation: inconclusive: 10.1%

## Brc1ccccc1
[2]
  Potency: inactive
[3]
  Potency: inactive
[6]; [14]
  Potency: inconclusive: 76.5 µM [activator, single point]

## Nc1cccnc1
[2]
  Potency: inactive
[3]
  Potency: inactive
[6]; [14]
  activation: inconclusive: 24.2% and inconclusive: -25.9%

## CO[C@@H]1[C@H](OC(=O)NC(=O)CCl)CC[C@]2(CO2)[C@H]1[C@@]1(C)O[C@@H]1CC=C(C)C
[2]
  activity change, negative = cytotoxicity: inactive: 4.01% [at 13.5 µM]
[3]
  activation: inactive: -1.88% [at 13.5 µM]

## CCN(CC)C(=O)C(C)Oc1cccc2ccccc12 (stereo unspecified)
[2]
  Potency: inconclusive: 116 nM [rising, full curve] and inconclusive: 14.5 µM [rising, full curve]
[3]
  Potency: inconclusive: 18.4 µM [rising, partial curve, poor fit] and inconclusive: 25.7 µM [rising, partial curve, poor fit]
[11]
  Potency: inactive
[5]
  activity change, negative = inhibition: inconclusive: -34.9%
[6]; [14]
  Potency: inconclusive: 69.1 µM [inhibitor, single point] and inactive

## Cn1cc(C2=C(c3cn(C4CCN(Cc5ccccn5)CC4)c4ccccc34)C(=O)NC2=O)c2ccccc21
[2]
  Potency: inconclusive: 2.23 µM [rising, full curve]
[3]
  Potency: inconclusive: 8.9 µM [fluorescent, partial curve]
[12]
  Potency: inconclusive: 10.7 µM [activator, partial curve]
[4]
  Potency: inconclusive: 9.44 µM [rising, partial curve]
[13]
  Potency: inconclusive: 6.68 µM [fluorescent, full curve, poor fit]
[6]; [14]
  Potency: inactive

## c1cc[c]([Sb]([c]2ccccc2)[c]2ccccc2)cc1
[2]
  Potency: inconclusive: 22.9 µM [cytotoxic, single point]
[3]
  Potency: inconclusive: 12.9 µM [rising, partial curve]
[4]
  Potency: inconclusive: 15.4 µM [fluorescent, full curve]
[13]
  Potency: inconclusive: 27.3 µM [fluorescent, single point]
[5]
  activity change, negative = inhibition: inconclusive: 20.7%
[9]
  Potency: inconclusive: 68.6 µM [inhibitor, single point]

## CC(Oc1ccc(Oc2ncc(C(F)(F)F)cc2Cl)cc1)C(=O)O (stereo unspecified)
[2]
  Potency: inactive
[3]
  Potency: inconclusive: 18.2 µM [rising, partial curve]
[4]
  Potency: inconclusive: 54.5 µM [rising, partial curve]
[13]
  Potency: inconclusive: 68.6 µM [fluorescent, single point]
[5]
  Potency: inactive
[6]; [14]
  Potency: inconclusive: 0.611 µM [inhibitor, single point]
